Screening data, single-dose tests

From ChEMBL document CHEMBL3988442, “University of Dundee, Small-Polar-MMV Screening Library” (2021).

A: 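Growth of Mycobacterium tuberculosis over 3 days (7H9 medium with glucose and tyloxapol); the read-out is not stated. Concentration: 50 µM. The record gives no direction; compounds that gave an IC50 in retests scored well above the rest, so higher reads as more growth inhibition. Size under these conditions: about 69,000 compounds, about 760 of them at 50% or above in at least one test.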
B: 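Phenotypic screen: M. tuberculosis growth, cholesterol and DPPC medium, 4 days; the read-out is not stated. Concentration: 50 µM. Higher reads as more growth inhibition (inferred: compounds with an IC50 in retests scored well above the rest). Size under these conditions: about 69,000 compounds, about 370 of them at 50% or above in at least one test.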

Results are given as percent effect.
The record does not define 0% and 100%; most values in the screen are far below 50% and negative numbers occur (in some assays of this library far below -100).
Compounds were drawn at random from those tested, without regard to their results.
Two or more numbers in one place are separate tests of the same structure; such repeats can differ widely.

Cc1n[nH]c(C)c1CC(=O)NCCc1ccccc1 gave A: -16.17%; B: -5.618%. With COc1ccc(C(=O)Nc2cccc(C(N)=O)c2)c(OC)n1 the screen gave A: -31.72%; B: -22.61%. Cc1ccc(S(=O)(=O)N2CCC3(CC(C(=O)NC4CCC4)=NO3)C2)cc1 (stereo not drawn) gave A: -19.28%; B: -3.629%. Result for CC(C)(C)Cc1nnc(NCc2ccsc2)o1 was A: 53.88%; B: 54.09%. For CSc1nc(C2CC2)nc(C)c1C(=O)NCc1ccco1 the result was A: -15.46%; B: -33.54%. With O=C(CCNS(=O)(=O)c1ccc(Cl)cc1)NCc1ccoc1 the screen gave A: -4.41%; B: -9.95% & -13.06%. Result for CCN(C)C(=O)CCC(=O)c1cccs1 was A: 1.365%; B: -11.76% & -2.149%. Result for COC(=O)c1cccc2nc([C@H]3CCN(CC(C)C)C3)oc12 was A: -3.456% & -3.909%; B: -24.17%.

Result for Cc1cccc(CN2C(=O)CCC23CCN(C(=O)N2CCCC2)CC3)n1.O=C(O)C(F)(F)F was A: -3.511%; B: -15.43% & -8.694%. CN(C(=O)c1ccccn1)c1nnc(C2CCOC2)s1 (stereo not drawn) gave A: -4.579%; B: 5.307% & -0.5352%. For CC(C)N1C[C@@H](CO)[C@H](c2ccccc2)S1(=O)=O the result was A: 0.3303%; B: -12.21%. Result for CC1CN(C(=O)c2ccc(C(N)=O)cc2)c2ccc(F)cc2O1 (stereo not drawn) was A: -15.18%; B: -10.76%. With CCc1ncc2c(n1)CN(Cc1cccc(OCC(N)=O)c1)CC2 the screen gave A: -2.34% & -47.14%; B: -3.323%. CC(C)CN1CCCC1c1cc[nH]n1 (stereo not drawn) read A: 37.14%; B: 37.4%. For COc1ncccc1CNC(=O)NCCNS(C)(=O)=O the result was A: 8.261%; B: 7.19%. O=C(O)C(F)(F)F.O=C(O)C(F)(F)F.O=C1CC2(CCN(Cc3ccncc3)C2)CN1c1ccc2c(c1)OCO2 (stereo not drawn) read A: -53.49%; B: -51.81%.

O=C1COC2(CCN(Cc3ccccn3)CC2)CN1CC1CC1 gave A: 12.62%; B: 8.394%. CN(C)CC(=O)N1CCc2onc(Cn3cccn3)c2C1 gave A: -26.44%; B: 22.32%. With CCCn1nc(C(=O)N2CCCC2c2noc(C)n2)ccc1=O (stereo not drawn) the screen gave A: 9.265% & -32.94%; B: -24.84%. Cc1cnn(CC2CCCCN2C(=O)c2sccc2C#N)c1 (stereo not drawn) read A: -14.82% & -11.16%; B: -23.1% & -11.13%. With CN(Cc1ccn[nH]1)Cc1c[nH]nc1-c1ccc(F)cc1 the screen gave A: -8.386%; B: -32.47%. With CCN(CC)c1ncc(S(=O)(=O)c2cccc(C)c2)c(N)n1 the screen gave A: -5.75% & -4.457%; B: -25.96%. For CN(C)C(=O)c1cc2ncc(C(=O)NC3CCCC3)cc2n1C the result was A: -5.556%; B: -18.87%. CCOc1ccc(S(=O)(=O)NCCc2ccc(N(C)C)cc2)cc1C gave A: -1.378% & -12.16%; B: -25.81%.

Cc1noc(CNc2ccc(OC(F)F)cc2OC(F)F)n1 gave A: 32.51% & 6.805%; B: 4.952%. Result for CCOc1ccc(Cl)c(C(=O)N2CCN(c3cnccn3)CC2)n1 was A: -2.112%; B: -7.588%. For Cc1noc(C2CCN(c3oc(C)nc3C#N)CC2)n1 the result was A: 8.419%; B: 12.9%. COc1ccc(C(C)N2CCC(C(=O)N(C)C)CC2)cc1Cl (stereo not drawn) gave A: -3.436%; B: -2.828%. With COCc1ccccc1CNCc1c(C(C)C)nn(C)c1N(C)C the screen gave A: 15.85%; B: 18.91%. Result for CCOCCN(C)C(c1cccnc1)c1ccc(F)cc1F (stereo not drawn) was A: -19.68%; B: 90.94% & 1.96%. Cc1ccc(N2CCC3(CCCN(C(=O)c4cccnc4)C3)C2)nn1.O=C(O)C(F)(F)F (stereo not drawn) gave A: -22.78%; B: -30.81%. With [H][C@]12C[C@@H](Cn3cncn3)N(C(C)=O)[C@@]1([H])CCN(S(C)(=O)=O)C2 the screen gave A: 11.66%; B: 0.4141%.

Result for Cc1ccc(CC(=O)N2CCC(Nc3cccnn3)CC2)s1 was A: -6.342%; B: -18.94%. For CCN(CC)c1ncccc1CNCc1cc2ccccc2s1 the result was A: 14%; B: -0.7982%. With CC(C)Oc1cccc(C(=O)C2CCCN(C(=O)c3ccoc3)C2)c1 (stereo not drawn) the screen gave A: 10.01%; B: 9.798%. Result for CC(C)c1nnc2n1CCN(Cc1ccc3c(c1)OCCO3)C2 was A: -23.68%; B: -10.53%. CCNS(=O)(=O)c1ccc(C)c(C(=O)N(C)Cc2ccco2)c1 read A: 10.71% & -1.575%; B: -0.1939%. COC[C@@H]1CCC[C@]12CN(Cc1ccco1)CCO2.O=C(O)C(F)(F)F gave A: -5.04%; B: -12.88%. Result for CNC(=O)Cc1ccccc1NC(=O)C1CCCC1 was A: -7.728%; B: -25.73%. [H][C@@]12CCN(Cc3cc(C)on3)C[C@@]1([H])O[C@H](c1nccs1)C2 read A: 25.31%; B: 6.25%.

CC(C)n1cnnc1CN(C)Cc1ccc(CO)o1 gave A: -7.665% & -1.51%; B: -4.124%. Result for COc1ncccc1C1CC(=O)Nc2cc(NS(C)(=O)=O)ccc21 (stereo not drawn) was A: 24.92%; B: -3.795%. Cc1nn(C)cc1CN1CCN(CC2(c3ccccc3)CC2)CC1 gave A: -21.95%; B: -6.204% & -2.743%. CC(=O)N(CCc1nc(-c2cc(C(N)=O)oc2C)cs1)C(C)C gave A: 12.64%; B: -0.877%. With CC(C)(C)C(=O)NCCCC(=O)NC(C)(C)c1ccc2c(c1)OCO2 the screen gave A: -4.534%; B: -20.06%.

The first 4 entries again:

* Cc1n[nH]c(C)c1CC(=O)NCCc1ccccc1 | A: -16.17%; B: -5.618%
* COc1ccc(C(=O)Nc2cccc(C(N)=O)c2)c(OC)n1 | A: -31.72%; B: -22.61%
* Cc1ccc(S(=O)(=O)N2CCC3(CC(C(=O)NC4CCC4)=NO3)C2)cc1 (stereo not drawn) | A: -19.28%; B: -3.629%
* CC(C)(C)Cc1nnc(NCc2ccsc2)o1 | A: 53.88%; B: 54.09%